Data as given in PubChem BioAssay AID686938 (Drosophila RNAi Screening Center, 2013)
Purpose: 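Fly genes required for calcium entry once internal stores are emptied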 (primary screen). System: Drosophila S2R+ cells. Reagent: long dsRNA against Drosophila genes, about 0.25 µg dsRNA per well, roughly 10,000 cells. Timing: 5 days of knock-down before the calcium assay. Conditions: thapsigargin (SERCA pump blocker) to empty calcium stores; entry signal taken 4 min after adding it. Detection: 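Per-well fluo-4 fluorescence in two replicates, unnormalised, measured in resting cells and 4 min after store depletion by the SERCA blocker thapsigargin; ratio of the two present in few wells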. Reading the numbers: calcium entry signal: higher = stronger calcium signal after store depletion; resting calcium signal: higher = higher resting calcium signal. Call rule: 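Called when the plate z-score of the entry-to-rest ratio, mean of duplicates, falls below −3; wells with low overall dye signal (Fmax z below −2) or more than five off-targets excluded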. Meaning of the calls: active = strongly reduced calcium entry; inactive = no strong reduction.
The deposit covers about 23,000 reagents; shown is a random part of those with a known target gene and a result. Over the whole deposit, 75 (0.33%) got an active call. 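Raw plate signals without normalisation; calls rest on plate z-scores that were not deposited; ratio present for only 364 wells.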 A plus sign joins genes that one reagent is predicted to hit. The record does not give: the dose of the treatment.

Gene	dsRNA	calcium entry signal, replicate 1 (fluorescence units)	calcium entry signal, replicate 2 (fluorescence units)	resting calcium signal, replicate 1 (fluorescence units)	resting calcium signal, replicate 2 (fluorescence units)	Call
CG10597	DRSC19357	3.34e7	4.25e7	1.79e7	1.90e7	inactive
CG6073	DRSC15962	3.18e7	5.16e7	1.48e7	2.60e7	inactive
CG6073	DRSC22742	4.15e7	3.68e7	2.36e7	1.91e7	inactive
TyrRS-m (Tyrosyl-tRNA synthetase, mitochondrial)	DRSC04286	4.60e7		2.18e7		inactive
sphinx2	DRSC22188	3.59e7	5.10e7	1.78e7	2.80e7	inactive
betaNACtes1 (Nascent-associated complex beta-subunit-like, testis 1)	DRSC19534	3.24e7	2.89e7	1.66e7	1.34e7	inactive
Had1 (beta Hydroxy acid dehydrogenase 1)	DRSC20216	4.34e7	3.05e7	2.16e7	1.49e7	inactive
sgll (sugarlethal)	DRSC15442	4.01e7	3.20e7	1.90e7	1.57e7	inactive
Atox1 (Antioxidant 1 copper chaperone)	DRSC22416	3.41e7	3.39e7	1.68e7	1.47e7	inactive
Sld5	DRSC14892	3.56e7	4.40e7	1.85e7	1.89e7	inactive
MKP-4 (MAPK Phosphatase 4)	DRSC19567	2.06e7	2.47e7	1.15e7	1.09e7	inactive
SsRbeta (Signal sequence receptor beta)	DRSC11290	3.92e7	4.57e7	1.75e7	3.01e7	inactive
EMC2B (ER membrane protein complex subunit 2B)	DRSC15506	2.70e7	4.18e7	1.33e7	4.97e7	inactive
Aatf (Apoptosis antagonizing transcription factor)	DRSC02131	2.14e7	2.32e7	1.18e7	1.24e7	inactive
CG31675	DRSC01825	3.36e7	7.07e7	1.52e7	2.67e7	inactive
CG34462	DRSC10768	2.50e7	5.52e7	1.20e7	2.33e7	inactive
CG17163	DRSC20901	4.19e7	4.28e7	2.17e7	1.97e7	inactive
jim	DRSC11889	2.95e7	4.27e7	1.32e7	2.99e7	inactive
neb (nebbish)	DRSC03577	4.39e7		2.17e7		inactive
snRNA:U4atac (small nuclear RNA U4atac)	DRSC12055	2.09e7	3.19e7	1.04e7	1.47e7	inactive
CG42360	DRSC04224	4.02e7	4.27e7	2.11e7	2.11e7	inactive
CG44837	DRSC10133	2.14e7	3.05e7	1.33e7	1.75e7	inactive
CG44837	DRSC10558	2.73e7	4.07e7	1.49e7	1.74e7	inactive
CG15124	DRSC06546	4.38e7	5.37e7	1.85e7	2.29e7	inactive
ArgRS (Arginyl-tRNA synthetase)	DRSC20138	3.09e7	2.56e7	1.57e7	1.15e7	inactive
CG16898	DRSC06635	5.93e7	5.48e7	2.45e7	2.64e7	inactive
CG42249	DRSC19383	3.76e7	4.92e7	1.76e7	2.44e7	inactive
CG42249	DRSC19826	4.52e7	4.12e7	2.08e7	1.75e7	inactive
CPT2 (Carnitine palmitoyltransferase 2)	DRSC08553	3.71e7	3.93e7	1.74e7	1.82e7	inactive
CG16700	DRSC19755	3.77e7	3.79e7	1.99e7	1.66e7	inactive
SA1 (Stromalin 1)	DRSC03424	3.39e7		2.26e7		inactive
CG9427	DRSC16490	4.21e7	4.80e7	1.81e7	2.08e7	inactive
MstProx	DRSC12458	3.53e7	5.34e7	1.82e7	2.56e7	inactive
MstProx	DRSC12601	2.85e7	1.96e7	1.42e7	1.03e7	inactive
CG14613	DRSC20625	2.90e7	3.53e7	1.55e7	1.60e7	inactive
Rai1 (Rat1 Interacting Protein 1)	DRSC20157	3.58e7	3.47e7	1.88e7	1.64e7	inactive
CG14572	DRSC11733	3.39e7	6.01e7	1.56e7	2.38e7	inactive
en (engrailed)	DRSC07609	4.56e7	3.54e7	2.68e7	1.76e7	inactive
mRpL16 (mitochondrial ribosomal protein L16)	DRSC18550	2.64e7	4.00e7	1.13e7	1.75e7	inactive
tst (twister)	DRSC14212	4.16e7	3.51e7	2.04e7	1.70e7	inactive
Crtp (Caldesmon-related protein)	DRSC04604	4.20e7	5.25e7	2.21e7	2.25e7	inactive
MCTS1 (Malignant T cell amplified sequence 1)	DRSC18393	3.61e7	3.10e7	1.63e7	1.48e7	inactive
geminin	DRSC04984	4.05e7	3.54e7	2.52e7	2.17e7	inactive
Vmat (Vesicular monoamine transporter)	DRSC06961	2.52e7	3.09e7	1.12e7	1.47e7	inactive
Vmat (Vesicular monoamine transporter)	DRSC06962	3.42e7	4.15e7	1.76e7	1.91e7	inactive
Vmat (Vesicular monoamine transporter)	DRSC22223	3.60e7	5.59e7	1.77e7	3.23e7	inactive
CG33543	DRSC00384	2.49e7	2.20e7	1.24e7	1.01e7	inactive
CG33543	DRSC00385	2.19e7	2.21e7	1.10e7	1.07e7	inactive
CG16789	DRSC15155	3.32e7	3.10e7	1.51e7	1.55e7	inactive
Dro (Drosocin)	DRSC07406	3.58e7	2.95e7	1.71e7	1.44e7	inactive
CG34148 + P5CDh2	DRSC13519	4.59e7	2.67e7	2.16e7	1.30e7	inactive
CG13970	DRSC02311	3.27e7	5.61e7	1.73e7	2.32e7	inactive
CG1575	DRSC18069	2.02e7	2.05e7	9.38e6	1.08e7	inactive
Kpc2 (Kip1 ubiquitination-promoting complex subunit 2)	DRSC07635	5.97e7	6.03e7	2.62e7	2.84e7	inactive
Srg3 (Sting-regulated gene 3)	DRSC08984	4.07e7	3.74e7	2.20e7	1.69e7	inactive
Srg3 (Sting-regulated gene 3)	DRSC10178	2.79e7	3.70e7	1.37e7	1.51e7	inactive
COX7AL (Cytochrome c oxidase subunit 7A-like)	DRSC15313	2.99e7	2.35e7	1.35e7	1.14e7	inactive
CG8192	DRSC07101	2.81e7	2.17e7	1.37e7	1.37e7	inactive

Limited to “calcium entry signal, replicate 2 (fluorescence units)”, for 5 of the entries above:
MCTS1 (Malignant T cell amplified sequence 1) [DRSC18393]: 3.10e7
geminin [DRSC04984]: 3.54e7
Vmat (Vesicular monoamine transporter) [DRSC06961]: 3.09e7
Vmat (Vesicular monoamine transporter) [DRSC06962]: 4.15e7
Vmat (Vesicular monoamine transporter) [DRSC22223]: 5.59e7
